# Assay results as given in patent publication US20030188756A1, “Treatment of inflammatory bowel disease with vitamin d compounds” (priority 2002, published 2003).
# Tests used:
# Assay type in all cases: in vivo
# [1] = system: WT mice; assay: Food restriction experiment, WT mice on cholecalciferol diet (+D restricted); conditions: mean ± SEM
# [2] = system: WT mice; assay: 1,25(OH)2D3 supplementation (0.005 μg/d, 4 weeks) of vitamin D deficient WT mice
# Description: MICE. Age and sex matched C57BL/6 IL-10 KO, and wildtype (WT) mice were produced in the Pennsylvania State University breeding colony; the breeding pairs were obtained from Jackson Laboratory (Bar Harbor, Me.). The animal facilities at the Pennsylvania State University are specific pathogen free and therefore breeding IL-10 KO mice was successful. All of the procedures described were reviewed and approved by the Pennsylvania State University Institutional Animal Care and Use Committee on Jan. 25, 1999, IACUC# number: 98118-A0.
# DIETS. […]
# The 3 week old vitamin D deficient mice were randomly assigned to various treatment groups as described below. […] Symptoms of hypercalcemia monitored daily included overall health and weight loss. […]
# SERUM MEASUREMENTS. […] Serum was collected every 2 weeks and serum calcium measured (normal for mice is 2.00-2.75 mmol/L). Vitamin D deficiency was also monitored by serum calcium analysis (serum calcium less then 1.75 mmol/L). […] Red blood cells were counted using a hemocytometer.
# IBD SEVERITY. Mortality associated with the development of diarrhea was recorded in IL-10 KO and WT mice. […] Four or more paraffin sections (4 microns) from each mouse were scored using the exact procedure described by Kuhns et. al (1993). The sections were scored blindly on a scale of 0 to 5 for inflammation. […]
# [3] = system: WT mice; assay: Short term (2 weeks, 0.2 μg/d) 1,25(OH)2D3 treatment of WT mice; conditions: 0.2 μg/d 1,25(OH)2D3 for 2 weeks from 7 weeks of age, mean ± SEM
# [4] = 5.0 μg/d cholecalciferol for 4 weeks
Structure (SMILES),Weight ([1]; 5.0 μg/d cholecalciferol for 4 weeks from 5 weeks of age) [g],"Small Intestine g [1, 4] [g]","Small Intestine g/100 g body [1, 4] [g/100 g body]","Weight ([2]; 0.005 μg/day 1,25(OH)2D3 for 4 weeks, 9 weeks of age, mean ± SEM) [g]","Histology Score ([2]; small intestine inflammation, scale 0 to 5, 0.005 μg/day for 4 weeks)",Small Intestine g [3] [g],Small Intestine g/100 g body [3] [g/100 g body]
C=C1CC[C@H](O)C/C1=C/C=C1\CCC[C@]2(C)[C@@H]([C@H](C)CCCC(C)C)CC[C@@H]12 [cholecalciferol],15.9 ± 1.1,0.85 ± 0.06,6.7 ± 0.2,–,–,–,–
"C=C1/C(=C\C=C2/CCC[C@]3(C)[C@@H]([C@H](C)CCCC(C)(C)O)CC[C@@H]23)C[C@@H](O)C[C@@H]1O [1,25(OH)2D3, 1,25-dihydroxycholecalciferol]",–,–,–,21.1 ± 1.0,0,1.06 ± 0.04,5.3 ± 0.2
